{"source": "patent US20060121449A1", "about": "“Method for selection of compounds which inhibit clonal cell growth and use thereof” (priority 2002, published 2006)", "test_system": "polyoma virus transformed BHK21/c13 cells, line S100T1", "assay": "Collocation inhibition test: clonal growth in sparsely and densely seeded areas of a cell density gradient of S100T1 cells in soft agar (Exp 13, 17, 19-26);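 also: soft agar cultures in 24-well plates with a cell density gradient in the top layer, compounds applied from DMSO stocks, clonal growth scored in sparse versus dense areas; grades rise with clonal growth and minus or plus-minus means none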", "settings": "preliminary results, Exp 13-18, 21-26", "data": [{"compound": "COc1ccc2cc([C@H](C)C(=O)O)ccc2c1", "note": "[Naproxen]", "values": [{"measurement": "Clonal growth, L low density area of cell gradient, High", "setting": "high concentration", "result": "(+)"}, {"measurement": "Clonal growth, L low density area of cell gradient, Low", "setting": "low concentration", "result": "(+"}]}]}
